Measurements from “University of Dundee, Small-Polar-MMV Screening Library” (2021), ChEMBL document CHEMBL3988442.

Chains of the proteins cited; added tags and fusions are not shown. Residues count along the entry.
UniProt P9WFT3, whole entry: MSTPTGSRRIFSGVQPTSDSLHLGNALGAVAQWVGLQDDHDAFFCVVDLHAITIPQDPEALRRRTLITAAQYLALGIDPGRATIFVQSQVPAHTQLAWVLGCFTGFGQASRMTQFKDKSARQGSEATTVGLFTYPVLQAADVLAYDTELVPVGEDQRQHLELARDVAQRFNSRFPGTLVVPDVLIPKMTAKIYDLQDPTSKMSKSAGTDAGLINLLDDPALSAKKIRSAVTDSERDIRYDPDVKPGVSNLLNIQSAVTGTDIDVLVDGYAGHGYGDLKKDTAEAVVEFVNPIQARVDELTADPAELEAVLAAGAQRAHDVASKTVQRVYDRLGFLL
UniProt Q8IDJ8, 1-583: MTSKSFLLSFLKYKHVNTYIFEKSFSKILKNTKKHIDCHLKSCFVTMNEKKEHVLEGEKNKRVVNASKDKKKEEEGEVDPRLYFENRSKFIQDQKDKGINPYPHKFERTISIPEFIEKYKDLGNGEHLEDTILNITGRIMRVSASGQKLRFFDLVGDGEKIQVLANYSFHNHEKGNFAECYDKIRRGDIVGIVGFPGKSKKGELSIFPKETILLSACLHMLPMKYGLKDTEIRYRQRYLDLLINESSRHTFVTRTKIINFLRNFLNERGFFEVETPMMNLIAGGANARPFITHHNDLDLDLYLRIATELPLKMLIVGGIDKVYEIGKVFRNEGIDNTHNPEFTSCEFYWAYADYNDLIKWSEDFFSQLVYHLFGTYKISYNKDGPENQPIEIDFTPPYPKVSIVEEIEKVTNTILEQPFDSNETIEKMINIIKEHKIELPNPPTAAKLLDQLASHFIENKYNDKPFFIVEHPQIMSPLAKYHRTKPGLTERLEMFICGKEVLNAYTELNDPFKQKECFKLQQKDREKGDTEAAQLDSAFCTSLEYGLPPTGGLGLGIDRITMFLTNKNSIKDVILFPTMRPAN
UniProt P9WNZ1, whole entry: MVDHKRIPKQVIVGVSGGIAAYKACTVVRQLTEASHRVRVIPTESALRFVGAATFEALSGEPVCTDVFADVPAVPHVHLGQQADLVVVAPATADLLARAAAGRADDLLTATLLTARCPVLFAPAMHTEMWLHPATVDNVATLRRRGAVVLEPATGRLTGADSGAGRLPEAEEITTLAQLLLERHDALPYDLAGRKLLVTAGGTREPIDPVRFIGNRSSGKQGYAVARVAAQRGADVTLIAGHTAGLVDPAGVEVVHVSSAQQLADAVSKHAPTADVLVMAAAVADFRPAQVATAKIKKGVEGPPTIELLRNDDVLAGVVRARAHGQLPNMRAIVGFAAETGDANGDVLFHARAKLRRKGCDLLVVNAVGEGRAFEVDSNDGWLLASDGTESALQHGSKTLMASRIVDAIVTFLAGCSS
UniProt P9WPC5, whole entry: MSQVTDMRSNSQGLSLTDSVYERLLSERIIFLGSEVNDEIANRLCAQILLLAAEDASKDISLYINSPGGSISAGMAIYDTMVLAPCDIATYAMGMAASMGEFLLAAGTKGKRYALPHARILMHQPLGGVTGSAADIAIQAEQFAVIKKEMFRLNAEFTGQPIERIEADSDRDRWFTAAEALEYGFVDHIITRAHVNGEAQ
UniProt P9WPC3, whole entry partner: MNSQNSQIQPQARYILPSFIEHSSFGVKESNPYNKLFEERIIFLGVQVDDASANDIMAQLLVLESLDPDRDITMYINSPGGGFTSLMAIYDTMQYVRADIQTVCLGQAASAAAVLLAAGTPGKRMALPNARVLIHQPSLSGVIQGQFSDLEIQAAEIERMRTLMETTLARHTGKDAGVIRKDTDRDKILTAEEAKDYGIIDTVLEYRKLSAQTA
UniProt Q4DA54, 1-478: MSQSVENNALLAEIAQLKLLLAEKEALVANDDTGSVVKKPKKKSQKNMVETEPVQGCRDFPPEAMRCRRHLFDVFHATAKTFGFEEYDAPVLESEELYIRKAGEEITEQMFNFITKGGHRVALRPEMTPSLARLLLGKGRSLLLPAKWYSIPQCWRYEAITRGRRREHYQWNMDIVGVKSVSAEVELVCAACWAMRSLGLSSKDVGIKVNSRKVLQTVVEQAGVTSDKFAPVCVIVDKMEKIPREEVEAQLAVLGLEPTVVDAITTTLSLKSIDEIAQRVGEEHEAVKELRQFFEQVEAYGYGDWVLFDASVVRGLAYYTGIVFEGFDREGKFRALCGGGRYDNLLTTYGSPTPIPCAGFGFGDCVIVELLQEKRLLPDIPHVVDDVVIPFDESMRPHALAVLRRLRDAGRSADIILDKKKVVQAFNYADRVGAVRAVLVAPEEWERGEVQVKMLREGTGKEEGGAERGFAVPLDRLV

MtTrpRS: 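Enzyme assay of tryptophanyl-tRNA synthetase; the read-out is not stated. Target: Tryptophan-tRNA ligase, Mycobacterium tuberculosis (UniProt P9WFT3). Compounds at 10 µM. Higher most likely means stronger inhibition; the record gives no direction and few retests gave an IC50. About 65,000 compounds were tested under these conditions; 0.098% (about 64) showed 50% or more at least once.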
PfKRS1: 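Lysine-tRNA ligase, Plasmodium falciparum 3D7 (UniProt Q8IDJ8). Enzyme assay of the cytosolic lysyl-tRNA synthetase in 384-well plates, read by luminescence. Compounds at 30 µM. Direction is inferred from only a few compounds that gave an IC50; most scored high, so higher reads as stronger inhibition. About 69,000 compounds were tested under these conditions; 0.071% (about 49) showed 50% or more at least once.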
CoaBC: 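Coenzyme A biosynthesis protein CoaBC, Mycobacterium tuberculosis (UniProt P9WNZ1). Enzyme assay of CoaBC with a phosphate dye (Biomol Green) read at 650 nm. Concentration: 30 µM. Higher reads as stronger inhibition, judged from the few compounds that gave an IC50. Most strong results did not repeat in a second test. About 67,000 compounds were tested under these conditions; 0.06% (about 40) showed 50% or more at least once.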
ClpP1P2: 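Protease assay of ClpP1P2, read by the AMC dye that it sets free. Target: ClpP1P2, Mycobacterium tuberculosis (UniProt P9WPC5 and UniProt P9WPC3). Tested at 50 µM. Direction is inferred from only a few compounds that gave an IC50; most scored high, so higher reads as stronger inhibition. Most other retested compounds had strongly negative values. About 69,000 compounds were tested under these conditions; 0.015% (about 10) showed 50% or more at least once.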
TcHisRS: 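Histidine-tRNA ligase, Trypanosoma cruzi CL Brener (UniProt Q4DA54). Enzyme assay of histidyl-tRNA synthetase; the read-out is not stated. Concentration: 30 µM. Higher reads as stronger inhibition (inferred: compounds with an IC50 in retests scored well above the rest). About 69,000 compounds were tested under these conditions; 0.045% (about 31) showed 50% or more at least once.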

Values are the deposited “Percent Effect”, in %.
How 0% and 100% were set is not recorded. Most values in the screen are low, and negative values occur.
This is an unselected part of the compounds tested.
A dash means the value is not listed here; it may have been measured.

compound,MtTrpRS,PfKRS1,CoaBC,ClpP1P2,TcHisRS
COc1ccc(C)cc1-n1cnnc1CC1CCNCC1,-4.46%,2.657%,-3.782%,8.505%,2.222%
CCn1nc(C)c2nc(C(C)C)nc(N3CCN(C)CC3)c21,2.437%,-3.24%,-3.33%,10.71%,1.754%
COCCNC(=O)N1CCSC2(CCCCC2)C1,1.083%,3.907%,4.303%,-3.284%,4.255%
Cn1ccc(N2CCCC(NC(=O)c3ccc(Cl)o3)C2=O)n1 (centres undefined),-1.398%,-2.772%,1.84%,-24.74%,-4.938%
CC[C@H](N)Cn1nc(-c2cccs2)oc1=O,-3.595%,2.595%,-9.722%,10.82%,-1.622%
Cc1cc(C(=O)N2C[C@H](C(C)C)[C@@H](N(C)C)C2)cs1,7.195%,2.702%,5.785%,-6.066%,6%
CS(=O)(=O)NC(=O)c1ccn(-c2ccccc2Cl)n1,-1.497%,8.405%,5.66%,-8.93%,-41.07%
CCCN(CCC)C1(Cc2cc(-c3cccc(O)c3)on2)COC1,-8.772%,6.093%,-27.31%,-11.95%,4.478%
CS(=O)(=O)c1ccc(-c2cc(C3CC3)c(C#N)c(N)n2)cc1,4.218%,6.082%,-0.1258%,-213.6%,1.786%
Cc1ccccc1C1(CNC(=O)N2CCC(CC(N)=O)CC2)CC1,-1.763%,5.767%,5.305%,0.07819%,3.448%
COc1cc(Br)c(CNc2ccn(CCC(N)=O)n2)cc1OC,-4.03%,1.986%,1.84%,-12.25%,7.407%
Cc1nc(C2CCCN(C(=O)CN3CCCNC3=O)C2)sc1C (centres undefined),-3.448%,7.379%,7.851%,4.752%,5.202%
O=C(Nc1ccccc1)c1ccc(NCc2ccccc2CO)nn1,-2.119%,5.121%,-,0.1008%,4.459%
CSc1ncc(CN(C)C(C)c2cccnc2)cn1 (centres undefined),-2.518%,1.532%,3.299%,-29.09%,4.933%
CCC1c2cccn2CCN1S(=O)(=O)N1CCOCC1 (centres undefined),8.971%,2.689%,-3.206%,-2.147%,0.7576%
CCc1c(C)sc2ncnc(N3CCN(C4CCOCC4)CC3)c12,0.9288%,0.1085%,-,9.305%,9.091%
CSC(C)(C)CNC(=O)NCCC1CCN(C)CC1,-1.243%,3.448%,-6.696%,-4.723%,6.224%
O=C(Nc1nnc(C(F)F)s1)NC(CCO)c1cccs1 (centres undefined),3.661%,-0.2394%,-5.665%,10.93%,5.263%
CCc1nc(CN(C(C)=O)C2CCN(CC3CCOCC3)C2)no1 (centres undefined),-3.782%,0.9077%,5.249%,-22.9%,5.714%
Cc1noc(-c2ccc(N3CCC(C(=O)N4CCCC4)CC3)nc2)n1,0.0849%,3.034%,4.497%,-6.238%,7.955%
COCCOc1ccc(NC(=O)N2CCCC2c2cc(C)no2)cn1 (centres undefined),-2.58%,6.974%,13.08%,4.116%,3.396%
COc1ccc(S(=O)(=O)NCCCc2ccc(N(C)C)cc2)cc1F,-3.419%,8.861%,-5.708%,6.51%,2.062%
Cc1ccc2c(n1)N(Cc1cccnc1)CCN(C(=O)C1CCC1)C2,-1.246%,3.111%,1.158%,4.241%,1.639%
CCc1cnc(NC2CCc3c(ccc(=O)n3C)C2)nc1 (centres undefined),-2.909%,2.231%,3.382%,12.48%,4.516%
CCN1CCC(CC(=O)N2CCn3cccc3C2c2cccnc2)CC1 (centres undefined),3.468%,0.3359%,5.466%,-5.926%,-1.538%
NC(=O)C1(c2cnccn2)CCCN1Cc1ccc(Cl)cc1 (centres undefined),-,2.821%,4.358%,-2.955%,2.222%
Cn1ccnc1CN1CCCC1Cn1cccn1 (centres undefined),-2.669%,-0.4556%,-5.63%,-8.741%,3.704%
Cc1noc(C)c1CCN1CCCC1c1nc2cc(F)ccc2[nH]1 (centres undefined),1.354%,1.818%,-0.7317%,-22.65%,6.863%
O=C(NCC1CCCO1)c1nc2c(s1)CCCN2c1ncccn1 (centres undefined),9.663%,-3.868%,-9.248%,-25.8%,11.43%
CCN(CC)C(=O)COc1ccnc2cc(OC)ccc12,-2.311%,7.025%,8.481%,-2.191%,3.659%
Cc1cccc(C(C(=O)N2CC(c3cccnc3)C2)N(C)C)c1 (centres undefined),-2.224%,2.749%,-8.678%,-3.924%,7.065%
CC(OCC1CC1)C(=O)Nc1nccn1Cc1ccccc1 (centres undefined),-2.217%,0.215%,0.1229%,-3.507%,2.381%
O=C1NC(C(=O)NCc2cccnc2Oc2ccccc2F)CO1 (centres undefined),-0.9181%,-2.696%,5.646%,-8.391%,5.473%
CCCc1n[nH]c(C2CN(C(=O)c3ccc[nH]3)CCO2)n1 (centres undefined),-7.263%,0.8576%,0.1277%,-25.41%,4.046%
Cc1nc2c(c(=O)n1C)CCN(C(=O)CCc1ccccc1O)CC2,0.8073%,4.17%,-3.024%,0.7095%,-2.174%
c1ccc(OCC2CC3(CCN(c4ncccn4)CC3)CO2)nc1 (centres undefined),-2.814%,6.776%,7.941%,9.771%,1.639%
CC(C)CN(Cc1ccc(C(F)(F)F)nc1)Cc1cnn(C)c1,0%,4.746%,-0.6211%,-15.72%,0.9662%
CN(C)c1cccc(CNC(=O)Nc2ccc3[nH]nnc3c2)n1,5.5%,2.663%,-1.138%,-0.7836%,3.922%
Cn1ccc(C(=O)N2CCC(c3cc(CCO)n(C)n3)C2)n1 (centres undefined),3.453%,0.4836%,-0.9709%,-6.335%,5.747%
Cn1ccnc1CN1CC2(CCN(Cc3ccncc3)C2)C1,-2.766%,6.591%,-18.89%,2.5%,9.804%
Fc1ccc(CN2CCC3(CC2)CN(c2ccccn2)CCO3)cc1,-0.08032%,4.493%,-6.036%,-13.69%,5.941%
O=C1NCCCCC1NC(=O)C1(c2cccc(C(F)(F)F)c2)CC1 (centres undefined),-0.2694%,0.898%,0.3636%,-10.75%,5.102%
Cc1[nH]c2ccc(CNC3CCN(Cc4ccccn4)CC3)cc2c1C,-1.679%,2.901%,-46.87%,-12.29%,-4.082%
CC(NC(=O)N(C)CCCOc1ccccc1)c1nncn1C (centres undefined),-10.67%,0.9323%,4.7%,-35.52%,6.78%
Cc1cccc2nc(C(=O)N3CCCC[C@]4(C)NC(=O)CC[C@H]34)cn12,10.14%,0.2688%,2.19%,-9.37%,2.985%
CCCN(C(=O)c1csnn1)C1CCCN(Cc2ccccc2)C1 (centres undefined),3.279%,1.338%,17.36%,1.161%,2.186%
CC(C)CCN1C[C@H]2CCN(C(=O)NC3CCCC3)CC[C@H]2S1(=O)=O,2.628%,1.901%,3.509%,5.326%,6.098%
Cc1cc(C)n(C2CN(CC(=O)N(C)Cc3ccco3)C2)n1,4.707%,4.186%,0%,3.096%,-10%
COc1ccccc1CN1C[C@@H]2CN(Cc3cccnc3)CCO[C@@H]2C1,2.933%,5.69%,1.789%,7.86%,-1.961%
Cc1c(C(=O)N2CCC2(C)C)nnn1-c1cccc2cnccc12,0.1271%,8.288%,3.175%,-2.496%,8.621%
Cc1cnn(CC2CN(Cc3nc(C)c4ccccc4n3)CCO2)c1 (centres undefined),-4.639%,0.4741%,7.572%,-68.11%,23.62%
NC(=O)CN1CCCC(Cc2ccc(N)nn2)C1 (centres undefined),5.507%,-0.9601%,-1.217%,13.75%,2.239%
COc1cc2c(cc1C1CC(=O)NCc3nc(N(C)C)sc31)CCC2 (centres undefined),-0.9054%,0.3803%,11.32%,-9.466%,14.14%
CN(Cc1ccncc1)C(=O)NC1CCCN(c2ncccn2)C1 (centres undefined),3.076%,2.179%,3.929%,-18.54%,5.325%
CCn1nc2c(cc1=O)CN(Cc1nc3ccccc3o1)CC2,3.292%,0.7659%,2.792%,-12.93%,4.036%
Cn1ncc2c1CN(Cc1ccccc1F)CC2COCC1CC1 (centres undefined),0.6006%,-8.252%,2.096%,-12.26%,2.632%
CC(C(=O)N1CCN(c2ccc(F)cc2)CC1)n1cc(Br)cn1 (centres undefined),1.684%,0.3619%,4.157%,-4.469%,3.478%
Cn1cc(C2CCCN2Cc2csc(-c3ccsc3)n2)cn1 (centres undefined),-1.652%,8.426%,2.828%,-12.3%,6.015%
CN(Cc1cccnc1)C1CC2(CCN(C(=O)c3cnccn3)CC2)C1,1.262%,3.399%,-5.499%,0.1794%,2.299%
Cn1ncc2c1CN(Cc1cccnc1)CC2COCC1CC1 (centres undefined),2.714%,3.945%,-13.98%,-5.75%,3.306%
O=C(c1cnc2c(cnn2C2CCCC2)c1)N1CCN(CCO)CC1,9.781%,-3.411%,7.237%,6.997%,0%

The first 4 entries again:

| compound | MtTrpRS | PfKRS1 | CoaBC | ClpP1P2 | TcHisRS |
|---|---|---|---|---|---|
| `COc1ccc(C)cc1-n1cnnc1CC1CCNCC1` | -4.46% | 2.657% | -3.782% | 8.505% | 2.222% |
| `CCn1nc(C)c2nc(C(C)C)nc(N3CCN(C)CC3)c21` | 2.437% | -3.24% | -3.33% | 10.71% | 1.754% |
| `COCCNC(=O)N1CCSC2(CCCCC2)C1` | 1.083% | 3.907% | 4.303% | -3.284% | 4.255% |
| `Cn1ccc(N2CCCC(NC(=O)c3ccc(Cl)o3)C2=O)n1` (centres undefined) | -1.398% | -2.772% | 1.84% | -24.74% | -4.938% |